In PubChem BioAssay AID540256 (National Center for Advancing Translational Sciences (NCATS), 2011):
Out of some 300,000 compounds screened, about 3,700 (1.2%) were called active. The inconclusive results got no clear call from the source; some entries with a clear call stand among them for comparison. Calls come from the whole dose curve; tested in HEK293 cells. Potencies of inconclusive entries are doubtful fits and often do not repeat.

Assay: qHTS for Inhibitors of binding or entry into cells for Lassa Virus; note: nearly all actives have a fitted effect of over 50% in size
Settings: Lassa virus pseudotype entry inhibition, cell reporter; series mostly up to 37.9 µM
Potency is the fitted concentration of half-maximal effect.

| SMILES | Potency |
| --- | --- |
| Cc1[nH]nc(C(F)(F)F)c1N=NN1CCOCC1 | inconclusive: 11.2 µM [inhibitor, partial curve, poor fit] |
| Cc1cc(C)cc(N(C(=O)c2snc(C(N)=O)c2N)C(C(=O)NCC2CCCO2)c2ccc(C)o2)c1 (configuration not stated) | inconclusive: 1.41 µM [inhibitor, full curve, poor fit] |
| CCC(=O)Nc1ccc(NCc2ccc(-c3ccccc3)cc2)cc1 | inactive |
| Cn1ccc(C(=O)Nc2sc3c(c2C(N)=O)CCCCC3)n1 | inconclusive: 35.5 µM [inhibitor, single point] |
| N#CCCN/N=C(/Cc1nc2ccccc2[nH]1)c1cccc(Cl)c1 | inconclusive: 12.6 µM [activator, partial curve, poor fit] |
| COc1ccc(Cc2nc3ccc(C(=O)N(C)C(C)c4ccon4)cc3o2)cc1 (configuration not stated) | inconclusive: 22.4 µM [inhibitor, single point] |
| O=C(CCS(=O)(=O)c1ccc(Cl)cc1)Nc1nnc(-c2ccco2)o1 | inconclusive: 1 µM [inhibitor, single point] |
| CSc1ccc(/C=C/C(=O)N2CCCN(C)CC2)cc1 | inconclusive: 10 µM [activator, partial curve, poor fit] |
| N#C/C(=C/c1ccc(-c2ccc(S(N)(=O)=O)cc2)o1)c1nc2ccccc2s1 | inconclusive: 3.55 µM [activator, single point] |
| CCOC(=O)C1(C#N)Cc2ccccc2C1 | inconclusive: 1.26 µM [inhibitor, partial curve, poor fit] |
| COc1ccc(-c2ccc(SCC(=O)Nc3cccc(C(C)=O)c3)nn2)cc1OC | inconclusive: 35.5 µM [inhibitor, single point] |
| OCCC1CN(Cc2cccc3c2OCO3)CCN1C1CCCC1 (configuration not stated) | inconclusive: 1 µM [inhibitor, full curve, poor fit] |
| CCOc1ccc(-c2nnc(NC(=O)CCCOc3cccc(C)c3)o2)cc1 | inconclusive: 29.1 µM [inhibitor, single point] |
| CCOc1ccc(S(=O)(=O)N2CCN(Cc3ccc4c(c3)OCO4)CC2)cc1C | inconclusive: 12.6 µM [inhibitor, partial curve, poor fit] |
| Cc1ccccc1CN1C(=O)c2ccccc2S(=O)c2ccc(C(=O)NC3CCC(C)CC3)cc21 (configuration not stated) | inconclusive: 35.5 µM [inhibitor, single point] |
| CCCCc1ccc(NC(=S)Nc2ccc(Nc3ccc(OC)cc3)cc2)cc1 | inconclusive: 15.8 µM [inhibitor, single point] |
| CC(=O)N1c2c(cc(Br)cc2S(=O)(=O)N2CCN(c3cc(C)ccc3C)CC2)CC1C (configuration not stated) | inconclusive: 7.94 µM [inhibitor, partial curve, poor fit] |
| O=C(c1ccc2c(c1)N(Cc1cccc(F)c1)C(=O)c1ccccc1S2)N1CCOCC1 | inconclusive: 0.562 µM [activator, full curve, poor fit] |
| O=C(OCC(=O)c1ccc(Cl)s1)c1ccc2ccccc2n1 | inactive |
| c1csc(-c2nnc(-c3ccc(N4CCOCC4)cc3)o2)c1 | inconclusive: 14.6 µM [inhibitor, partial curve, poor fit] |
| O=C(Cc1ccccc1)NCC1OCCc2ccccc21 (configuration not stated) | inconclusive: 0.794 µM [inhibitor, single point] |
| CN(C)c1ccc(C(=O)c2ccc(N(C)C)c3ccccc23)cc1 | active: 0.251 µM |
| CC1=NNC(=O)/C1=C\c1cn(-c2ccccc2)nc1-c1ccc(F)cc1 | inconclusive: 11.2 µM [inhibitor, partial curve, poor fit] |

Given field by field: entries from further up.
O=C(Cc1ccccc1)NCC1OCCc2ccccc21 (configuration not stated)
  Potency: inconclusive: 0.794 µM [inhibitor, single point]
CN(C)c1ccc(C(=O)c2ccc(N(C)C)c3ccccc23)cc1
  Potency: active: 0.251 µM

(continued)

| SMILES | Potency |
| --- | --- |
| COc1ccc(NC2=NCC(=O)N2c2ccccc2F)cc1 | inconclusive: 1.3 µM [inhibitor, single point] |
| CCCC(C(=O)NC1CCCC1)N(Cc1ccc(F)cc1)C(=O)c1snc(C(N)=O)c1N (configuration not stated) | inconclusive: 25.1 µM [inhibitor, single point] |
| COc1ccccc1NC(=O)c1c(NCc2ccc(OC)c(OC)c2OC)sc2c1CCC2 | inconclusive: 6.31 µM [activator, partial curve, poor fit] |
| O=C(O)CCC(=O)N1CCN(c2ncccc2C(F)(F)F)CC1 | inactive |
| CCOC(=O)c1cc2c(ccn2-c2ccc(F)cc2)n1CC(=O)N1CCN(C(=O)c2ccco2)CC1 | active: 9.2 µM |
| O=C(NC(=S)Nn1cnnc1)c1ccccc1Cl | inactive |
| COc1ccc(CNc2nc3c(-c4cccc(C)c4)nnn3c3ccccc23)cc1 | inactive |
| CCOC(=O)c1ccccc1-n1c(C)cc(C2N=C(N)Nc3nc4ccccc4n32)c1C (configuration not stated) | inactive |
| CCN1CCN(Cc2c(O)ccc3c(=O)c(-c4ccccc4OC)coc23)CC1 | inactive |
| C=CCN1C(=O)S/C(=C/c2ccc(Sc3nc4ccccc4[nH]3)o2)C1=O | active: 20 µM |
| Clc1ccc(-c2nn3ncccc3c2-c2ccnc(Nc3ccccc3)n2)cc1 | inconclusive: 22.3 µM [inhibitor, partial curve, poor fit] |
| C/C(=N\Nc1ccc(S(=O)(=O)Nc2ccc(Cl)cc2)cc1[N+](=O)[O-])c1ccc(N2CCOCC2)cc1 | inactive |
| Cc1nnsc1C(=O)NC1CCCc2c1cnn2-c1ccccc1F (configuration not stated) | active: 0.501 µM |
| Cc1sc(NC(=O)CSc2nnnn2C2CCCC2)c(C#N)c1C | inconclusive: 29.1 µM [inhibitor, single point] |
| O=C(c1ccccc1)c1ncc(C(F)(F)F)cc1Cl | inactive |
| COc1ccc(OC)c(NC(=O)Nc2ccc(O)c3ccccc23)c1 | inconclusive: 15.8 µM [inhibitor, partial curve, poor fit] |
| CCOc1ccccc1-n1c(=S)sc2c(=O)n(-c3ccc(C)cc3)c(=S)[nH]c21 | inconclusive: 11.2 µM [inhibitor, partial curve, poor fit] |
| S=C(NCc1ccccc1)Nc1cccc2ccccc12 | inconclusive: 35.5 µM [inhibitor, single point] |
| Nc1nc(/C=C/c2ccc(F)cc2)nc(-c2ccccc2O)n1 | inconclusive: 10 µM [inhibitor, partial curve, poor fit] |
| CCN(CC)c1ccc(N/C(N)=N/c2nc(C(F)(F)F)cc(=O)[nH]2)cc1 | inconclusive: 4.61 µM [inhibitor, partial curve, poor fit] |
| COC(=O)c1c(-c2ccccc2Cl)noc1-c1cnc(N)nc1C(F)(F)F | inactive |
| Cc1ccc(NC(=O)CCn2c(=O)c3cccn3c3ccccc32)cc1C | inconclusive: 35.5 µM [inhibitor, single point] |
| CCn1nc(NC(=O)c2cccnc2)c2cc3ccccc3nc21 | inactive |

Single values from above:
Value for `S=C(NCc1ccccc1)Nc1cccc2ccccc12` under Potency: inconclusive: 35.5 µM [inhibitor, single point]
Value for `CCOC(=O)c1ccccc1-n1c(C)cc(C2N=C(N)Nc3nc4ccccc4n32)c1C` (configuration not stated) under Potency: inactive
Value for `CCOc1ccccc1-n1c(=S)sc2c(=O)n(-c3ccc(C)cc3)c(=S)[nH]c21` under Potency: inconclusive: 11.2 µM [inhibitor, partial curve, poor fit]

The results go on:

| SMILES | Potency |
| --- | --- |
| COc1ccccc1C(=O)Nc1ccc(S(=O)(=O)NC2=NCCCCC2)cc1 | inactive |
| Cc1ccc(N2C(=O)NC(NC(=O)C(C)(C)C)(C(F)(F)F)C2=O)cc1 (configuration not stated) | inconclusive: 17.8 µM [activator, single point] |
| CSCCC(NC(=O)COc1ccccc1)C(=O)N1CCCC(C)C1 (configuration not stated) | inconclusive: 35.5 µM [activator, single point] |
| CCC(=O)N1N=C(c2ccccc2)CC1c1ccccc1 (configuration not stated) | inactive |
| CC(C)(C)OC(=O)N1CCC(c2c(C(=O)NCCN3CCc4ccccc4C3)cnn2-c2ccc(F)cc2F)CC1 | inconclusive: 0.794 µM [inhibitor, full curve, poor fit] |
| CCSc1nnc(NC(=O)CSc2nc3c(c(=O)n2CC)SC(C)C3)s1 (configuration not stated) | inconclusive: 11.2 µM [inhibitor, single point] |
| CCCCN(C)CCNC(=O)c1c2c(nc3ccccc13)C(=O)N(C1CCCCC1)C2 | inactive |
| CCCNC(=O)CCc1nnc2ccc(N3CCN(c4cccc(OC)c4)CC3)nn12 | inactive |
| O=S(=O)(c1cccs1)N1CCN(c2ccc(O)cc2)CC1 | inconclusive: 12.6 µM [inhibitor, partial curve] |
| COc1ccc(N(CC(=O)NC2CCCCC2)C(=O)c2ccc(C)s2)cc1OC | inconclusive: 25.1 µM [inhibitor, single point] |
| CCOc1ccc(N2CC(c3nc4ccccc4n3CCCOc3ccccc3)CC2=O)cc1 (configuration not stated) | inconclusive: 35.5 µM [inhibitor, single point] |
| COc1ccc(C2CC(c3cccs3)=NN2c2ccc(C=O)cc2)cc1 (configuration not stated) | inconclusive: 7.08 µM [inhibitor, partial curve] |
| CCCCOC(=O)c1ccc(NC(=O)c2cc3c(=O)n4cccc(C)c4nc3s2)cc1 | inconclusive: 35.5 µM [activator, partial curve, poor fit] |
| COc1ccc(NC(=O)/C(Cl)=C(/Cl)S(=O)(=O)Cc2ccccc2)cn1 | active: 22.4 µM |
| CC1(C)C2CCC(C2)C1C/C=N/NC(N)=S (configuration not stated) | inactive |
| CC(C)C(c1nnnn1Cc1ccc(F)cc1)N1CCN(Cc2ccc3c(c2)OCO3)CC1 (configuration not stated) | inconclusive: 20 µM [inhibitor, single point] |
| C/C(CC(=O)Nc1ccccn1)=N\NC(=O)c1ccccc1O | inconclusive: 6.31 µM [inhibitor, partial curve, poor fit] |
| CCOc1cc(-c2nnc(-c3ccco3)o2)cc(OCC)c1OCC | inactive |
| Cc1cc(Cl)ccc1OCc1nc(-c2ccc(-n3cccc3)cc2)no1 | inconclusive: 3.55 µM [activator, partial curve, poor fit] |
| Cc1ccc(C(=O)O/N=C/c2ccc(N(C)C)cc2)cc1 | inactive |
| COc1cc(C(=O)NC2CCCc3ccccc32)ccc1OCC(=O)Nc1ccc(F)cc1 (configuration not stated) | inconclusive: 3.55 µM [inhibitor, partial curve, poor fit] |
